In this assay the target is T1, MuSK (muscle specific kinase), full length (rat) (UniProt Q62838).
T1 sequence: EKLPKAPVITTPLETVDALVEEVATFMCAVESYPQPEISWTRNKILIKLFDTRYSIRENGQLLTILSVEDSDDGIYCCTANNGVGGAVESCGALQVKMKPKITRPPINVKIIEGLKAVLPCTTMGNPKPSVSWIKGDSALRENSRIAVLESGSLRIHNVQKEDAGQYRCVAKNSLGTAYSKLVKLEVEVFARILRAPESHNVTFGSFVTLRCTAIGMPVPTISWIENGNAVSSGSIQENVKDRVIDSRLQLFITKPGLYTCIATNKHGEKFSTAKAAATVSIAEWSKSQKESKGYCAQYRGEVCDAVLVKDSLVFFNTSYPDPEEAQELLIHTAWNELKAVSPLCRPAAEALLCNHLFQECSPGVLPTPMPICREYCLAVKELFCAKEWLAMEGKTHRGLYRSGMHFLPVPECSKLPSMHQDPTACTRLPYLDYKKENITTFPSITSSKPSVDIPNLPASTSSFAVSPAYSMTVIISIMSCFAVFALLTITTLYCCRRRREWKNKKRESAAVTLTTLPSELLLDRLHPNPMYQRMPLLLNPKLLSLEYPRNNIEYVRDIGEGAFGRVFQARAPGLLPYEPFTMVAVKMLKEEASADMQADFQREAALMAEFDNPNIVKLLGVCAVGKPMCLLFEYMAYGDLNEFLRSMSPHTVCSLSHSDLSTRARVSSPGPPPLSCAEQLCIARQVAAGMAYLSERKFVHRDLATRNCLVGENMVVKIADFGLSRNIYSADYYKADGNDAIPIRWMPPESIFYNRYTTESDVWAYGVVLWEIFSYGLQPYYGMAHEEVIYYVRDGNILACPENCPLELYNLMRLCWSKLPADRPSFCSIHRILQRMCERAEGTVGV
Description: co-IP; COS 7 cells cotransfected with Wnt4-HA and MuSK or MuSKΔCRD; total cell lysates immunoprecipitated with anti-MuSK or anti-HA antibodies and protein A or G sepharose (3 hours at 4°C), washed in lysis buffer (Tris HCl 50 mM, NaCl 150 mM, EDTA 2 mM, SDS 0.1%, Triton X100 1%); western blot with HA or MuSK antibodies.

No constants are given. Whether binding was seen depends on the method and setting. Binding seen in cells or lysates may run through a third protein. Some entries that bind do so weakly or less than the wild type. Tags and fused reporters may be left off the sequences shown.

B1: HA-tagged Wnt4 (ligand, UniProt P22724 23-351, looked up)
chain: SNWLYLAKLSSVGSISEEETCEKLKGLIQRQVQMCKRNLEVMDSVRRGAQLAIEECQYQFRNRRWNCSTLDSLPVFGKVVTQGTREAAFVYAISSAGVAFAVTRACSSGELEKCGCDRTVHGVSPQGFQWSGCSDNIAYGVAFSQSFVDVRERSKGASSSRALMNLHNNEAGRKAILTHMRVECKCHGVSGSCEVKTCWRAVPPFRQVGHALKEKFDGATEVEPRRVGSSRALVPRNAQFKPHTDEDLVYLEPSPDFCEQDIRSGVLGTRGRTCNKTSKAIDGCELLCCGRGFHTAQVELAERCGCRFHWCCFVKCRQCQRLVEMHTCR
For the molecule B1, the binding result was “binds”.

These data come from paper PMC3257248, “Wnt4 Participates in the Formation of Vertebrate Neuromuscular Junction” (PLoS ONE, 2012).
